This is an account of results in US11427783B2, “Perfuming compositions” (Firmenich SA, priority 2016, dated 2022).

A short description of the data set: Volatility of perfuming compounds in air. The format is physicochemical.

Regarding `CCCCCCCC1CCC(=O)O1` (racemic) [(+−)-5-heptyldihydro-2(3H)-furanone], the “Volatility (μg/l air)” value stood at 3.67 μg/l air.
